From PubChem BioAssay AID540276 (National Center for Advancing Translational Sciences (NCATS), 2011)
Values joined by “and” are separate entries in the source; they are usually repeats but may differ in a detail not shown here. Identical values can stand only once. The whole screen tested about 300,000 compounds, of which about 5,400 (1.8%) were called active. This list was built around the results that the source calls inconclusive (neither active nor inactive); the mix of calls is not that of the screen. The call rests on the fitted dose curve; tested in HEK293 cells. Where the call is inconclusive, the potency comes from a doubtful curve fit.
On the % scale 0 is the no-effect control and ±100 the full control effect; potency means the concentration at half of the fitted maximal effect.

Assay: qHTS for inhibitors of binding or entry into cells for Marburg Virus
Conditions: Marburg virus pseudotyped entry inhibition, cell reporter; activity change, negative = inhibition: at 37.8 µM (top of the series) unless noted
In the case of `CCOC(=O)c1ccc(NC(=O)c2cc3ccccc3o2)cc1`, the Potency is reported as “inactive”. With `COC(=O)c1cn(NC(=O)c2ccc([N+](=O)[O-])c(C)c2)c(=O)c2ccccc12` the Potency was inconclusive: 0.708 µM [inhibitor, partial curve, poor fit]. With `CC(=O)NCCC(=O)N1CCc2c([nH]c3ccccc23)C1c1cccc(Cl)c1` (stereo unspecified) the Potency was inconclusive: 35.5 µM [inhibitor, single point]. With `CCc1cccc(C)c1NC(=O)CC(C)(C)CC(=O)O` the Potency was inconclusive: 2.24 µM [inhibitor, partial curve, poor fit]. In the case of `COCCn1c(=S)[nH]c2cc(C(=O)N3CCc4ccccc43)ccc2c1=O`, the Potency is reported as inconclusive: 7.3 µM [inhibitor, single point]. In the case of `COc1nc(-c2ccccc2Cl)ccc1C#N`, the Potency is reported as “inactive”. In the case of `COc1c(OC(C)=O)ccc(/C=C/c2ccc3cccc(OCc4ccccc4)c3n2)c1[N+](=O)[O-]`, the Potency is reported as inconclusive: 11.2 µM [inhibitor, partial curve, poor fit]. For `CCN1C(=O)c2ccccc2S(=O)c2ccc(C(=O)N3CCN(c4cccc(Cl)c4)CC3)cc21` (stereo unspecified), the Potency was “inactive”. For `CCN1C(=O)/C(=C2/C=Cc3ccccc3N2C)OC1=S`, the Potency was inconclusive: 7.08 µM [activator, partial curve, poor fit]. In the case of `CCOc1ccc(NC(=O)Cn2cc(C(=O)c3ccccc3)c(=O)c3cc(OC)ccc32)cc1`, the Potency is reported as inconclusive: 6.31 µM [inhibitor, single point]. For `CC(C)(CN1CCN(Cc2ccccc2)CC1)NS(=O)(=O)c1ccccc1`, the Potency was inconclusive: 12.6 µM [inhibitor, partial curve, poor fit]. In the case of `Cc1[nH]nc2c1C(c1cccnc1)N(c1ccc(Br)cc1)C2=O` (stereo unspecified), the Potency is reported as “inactive”. For `COc1ccc(/C=C2/SC(=S)N(CCCC(=O)N3CCN(C)CC3)C2=O)cc1`, the Potency was inconclusive: 17.8 µM [inhibitor, partial curve, poor fit]. For `O=C(OCc1nc2ccccc2s1)c1ccccc1O`, the Potency was “inactive”. For `CC(=O)Nc1cc(C(=O)N2CCC3(CC2)OCCO3)ccc1Sc1ccc(F)cc1`, the Potency was inconclusive: 6.31 µM [inhibitor, partial curve, poor fit]. With `CCC(Sc1nncn1C)C(=O)Nc1cc(C)on1` (stereo unspecified) the Potency was “inactive”. With `COc1cccc2cc(C(N)=O)oc12` the Potency was “inactive”. For `O=C(/C=C/c1ccc(O)c([N+](=O)[O-])c1)c1ccc2ccccc2c1`, the Potency was “inactive”. In the case of `COc1cccc(C(C(=O)NCc2ccco2)N(Cc2ccco2)C(=O)Cn2nnc3ccccc32)c1` (stereo unspecified), the Potency is reported as inconclusive: 2 µM [inhibitor, full curve, poor fit]. With `COc1cccc(-n2nc3c(=O)n(Cc4ccccc4Cl)nc(C)c3c2C)c1` the Potency was “inactive”. In the case of `CS(=O)(=O)c1cccc(-c2nnc(NC(=O)c3ccc4ncsc4c3)o2)c1`, the Potency is reported as “inactive”. In the case of `COc1ccc(-n2c(-c3ccc(Br)cc3)c[n+]3c2CCCCC3)cc1`, the Potency is reported as inconclusive: 17.8 µM [inhibitor, single point]. For `CC(C)COc1ccc(-c2nnn(CC(=O)N3CCCC3)n2)cc1`, the Potency was “inactive”. For `CCOC(=O)c1c(C)[nH]c(C(=O)OCc2c(C)noc2C)c1C`, the Potency was inconclusive: 1.26 µM [activator, single point]. In the case of `COc1ccc(Nc2cc(C)nc(-n3nc(C)cc3C)n2)cc1`, the Potency is reported as active: 1.3 µM. For `C=CCNS(=O)(=O)c1sccc1/C=N/O`, the Potency was inconclusive: 20.6 µM [activator, single point]. With `COc1ccccc1N1CCN(CC(O)COc2cccc3ccccc23)CC1` (stereo unspecified) the Potency was “inactive and inconclusive: 29.1 µM [inhibitor, single point] and inconclusive: 282 nM [inhibitor, full curve, poor fit]”. With `O=C(O)c1ccccc1NS(=O)(=O)c1ccc(NN=Cc2cccc(Cl)c2)c([N+](=O)[O-])c1` the activity change, negative = inhibition was inconclusive: 26.5% [activator]. With `COc1ccc(S(=O)(=O)N2CCOC2CNC(=O)C(=O)NCCc2ccc(OC)c(OC)c2)cc1` (stereo unspecified) the Potency was inconclusive: 35.5 µM [inhibitor, single point]. In the case of `COc1ccccc1C/C(N)=N/OC(=O)c1ccc(C)c([N+](=O)[O-])c1`, the Potency is reported as inconclusive: 16.4 µM [inhibitor, partial curve, poor fit]. With `Cc1ccc(CNC(=O)c2cn(C)c3ccc(S(=O)(=O)N4CCC(C)CC4)cc3c2=O)cc1` the Potency was “inactive”. In the case of `COC(=O)c1[nH]c2cccc(OC)c2c1NC(=O)CN1CCN(c2cccc(OC)c2)C(C)C1` (stereo unspecified), the Potency is reported as inconclusive: 35.5 µM [inhibitor, single point]. With `CSc1nc(NCc2ccco2)c2ccccc2n1` the Potency was “inactive”. For `COc1ccc(-c2cc(C(F)(F)F)nc(N)n2)cc1`, the Potency was inconclusive: 5.62 µM [inhibitor, single point]. In the case of `CCC(C)(C)NC(=O)C(c1ccc(C)cc1)N(CC1CCCO1)C(=O)CCC(=O)Nc1ccccn1` (stereo unspecified), the Potency is reported as inconclusive: 15.8 µM [inhibitor, partial curve, poor fit]. For `Cc1cccc(C)c1NC(=O)c1cc2sccc2n1Cc1ccc(F)cc1`, the Potency was “inactive”. With `Cc1ccc(C(=O)N/C(=C\c2ccco2)C(=O)NCCc2c[nH]c3ccccc23)cc1` the Potency was inconclusive: 11.2 µM [inhibitor, partial curve, poor fit]. With `CC(NC(=O)COC(=O)/C=C/c1cccc(F)c1)c1ccccc1` (stereo unspecified) the Potency was inconclusive: 5.01 µM [inhibitor, single point]. With `COc1ccccc1CN(C)C(=O)c1cccc(S(=O)(=O)N2CCCc3ccccc32)c1` the Potency was “inactive”. With `CCOc1ccc(NC(=O)CSc2cn[nH]n2)cc1` the Potency was inconclusive: 0.501 µM [inhibitor, full curve]. With `Cc1ccc(NC(=O)NCc2c(-n3cccc3)sc3c2CCCC3)c(Cl)c1` the Potency was “inactive”. In the case of `Cc1ccc(CNC(=O)CCCn2nc(C)n3c(cc4sccc43)c2=O)cc1`, the Potency is reported as “inactive”. With `CC1=C(C(=O)OC(C)C)C(c2cccs2)N2C(=O)C(C)SC2=N1` (stereo unspecified) the Potency was inconclusive: 35.5 µM [inhibitor, single point]. For `CN1CCC(=C2c3ccccc3CC(=O)c3sccc32)CC1`, the Potency was inconclusive: 18.4 µM [inhibitor, single point] and inconclusive: 31.6 µM [inhibitor, partial curve, poor fit] and inconclusive: 20.6 µM [inhibitor, single point]. With `CC(Sc1nncn1C)C(=O)Nc1ccc2ccccc2c1` (stereo unspecified) the Potency was inconclusive: 15.8 µM [activator, single point]. For `O=S1(=O)CCN(Cc2ccc(Cl)cc2)CC1`, the Potency was inconclusive: 0.316 µM [inhibitor, single point]. In the case of `COc1ccc(N(C)S(=O)(=O)c2ccc(Cl)c(C(=O)NCC(C)(C)N3CCOCC3)c2)cc1`, the Potency is reported as inconclusive: 0.251 µM [inhibitor, full curve, poor fit]. For `CCCN1CCN(C(=S)Nc2ccccc2C(F)(F)F)CC1`, the Potency was inconclusive: 35.5 µM [inhibitor, single point]. For `CSCCC(NC(=O)C1CCC(C)CC1)C(=O)N1CCN(c2ccccn2)CC1` (stereo unspecified), the Potency was inconclusive: 2.59 µM [inhibitor, partial curve]. In the case of `CN1CCN(C(=S)NC(CC(=O)c2ccccc2)c2ccccc2)CC1` (stereo unspecified), the Potency is reported as inconclusive: 14.1 µM [inhibitor, single point]. In the case of `Fc1ccccc1Cc1nnc2n1N=C(c1ccc(Cl)cc1)CS2`, the Potency is reported as inconclusive: 0.251 µM [activator, full curve, poor fit]. For `O=C(NCc1ccccc1C(F)(F)F)C1CCC(=O)N(C2CCCCCC2)C1` (stereo unspecified), the Potency was inconclusive: 1 µM [inhibitor, full curve, poor fit]. In the case of `O=C(NC1CCCc2ccccc21)c1ccc([N+](=O)[O-])cc1` (stereo unspecified), the Potency is reported as inconclusive: 29.1 µM [inhibitor, single point]. With `O=C(c1cc(N2C(=O)C3C4CCC(C4)C3C2=O)ccc1Cl)N1CCN(c2ccc(F)cc2)CC1` (stereo unspecified) the Potency was inconclusive: 8.91 µM [inhibitor, single point]. For `Cc1cc(N)cc(C)c1-c1c(Br)cc(N)cc1Br`, the Potency was inconclusive: 35.5 µM [inhibitor, single point]. In the case of `CC(O)CNc1nc2ccccc2n1CC(=O)NCC(F)(F)F` (stereo unspecified), the Potency is reported as inconclusive: 31.6 µM [activator, single point]. With `Cc1ccc(/C=c2\s/c(=C(/C#N)C(=O)N3CCCC3)n(Cc3ccco3)c2=O)s1` the Potency was inconclusive: 32.6 µM [inhibitor, single point]. In the case of `COCCN(C(=O)COC(=O)/C=C/c1ccc(C(F)(F)F)cc1)c1c(N)n(Cc2ccccc2)c(=O)[nH]c1=O`, the Potency is reported as “inactive”. In the case of `CCCn1nnnc1NC(=O)c1ccc2ccccc2c1`, the Potency is reported as “inactive”. In the case of `COC(=O)c1cc2n(n1)CCN(Cc1ccc(C)cc1)C2=O`, the Potency is reported as inconclusive: 35.5 µM [activator, single point]. In the case of `CC(C)(C)C(=O)Nc1nnc(CSCc2ccccc2F)s1`, the Potency is reported as inconclusive: 29.1 µM [activator, single point]. For `O=C(CCn1ccnc1)Nc1cc(Cl)ccc1O`, the Potency was inconclusive: 35.5 µM [activator, single point]. With `Cc1ccc(C(OCC(C)(C)C[N+](C)(C)C)c2ccccc2)cc1` (stereo unspecified) the Potency was inconclusive: 35.5 µM [inhibitor, single point]. In the case of `Cc1ccc(COC(=O)c2ccc(-c3nnn(Cc4ccc(C)cc4)n3)cc2)cc1`, the Potency is reported as “inactive”. For `CC1CC(=O)c2cnc(Nc3cccc(C(F)(F)F)c3)nc2C1` (stereo unspecified), the Potency was “inactive”. With `CC(C)Oc1cccc(C(=O)C2CCCN(Cc3cnc(N4CCCC4)s3)C2)c1` (stereo unspecified) the Potency was inconclusive: 7.3 µM [inhibitor, partial curve].
